From publication PMC12170880 come the findings set out here.

The chains behind the UniProt entries cited, without tags or fusion partners. Residues count along the entry.
UniProt Q9XIE1, residues 1-191: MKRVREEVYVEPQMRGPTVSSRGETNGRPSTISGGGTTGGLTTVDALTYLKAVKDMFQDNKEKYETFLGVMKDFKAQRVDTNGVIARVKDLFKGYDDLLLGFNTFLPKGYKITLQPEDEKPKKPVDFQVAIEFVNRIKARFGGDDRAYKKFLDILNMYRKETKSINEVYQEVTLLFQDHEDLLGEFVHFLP

These are yes or no findings as the source states them, for the method shown. Some binding calls cover weakened binding; strength is not graded here. Where a sequence is shown, tags or fusion partners need not be part of it.

The assay addresses T1, GST-HDA19 (Arabidopsis thaliana) (UniProt O22446).
T1 sequence: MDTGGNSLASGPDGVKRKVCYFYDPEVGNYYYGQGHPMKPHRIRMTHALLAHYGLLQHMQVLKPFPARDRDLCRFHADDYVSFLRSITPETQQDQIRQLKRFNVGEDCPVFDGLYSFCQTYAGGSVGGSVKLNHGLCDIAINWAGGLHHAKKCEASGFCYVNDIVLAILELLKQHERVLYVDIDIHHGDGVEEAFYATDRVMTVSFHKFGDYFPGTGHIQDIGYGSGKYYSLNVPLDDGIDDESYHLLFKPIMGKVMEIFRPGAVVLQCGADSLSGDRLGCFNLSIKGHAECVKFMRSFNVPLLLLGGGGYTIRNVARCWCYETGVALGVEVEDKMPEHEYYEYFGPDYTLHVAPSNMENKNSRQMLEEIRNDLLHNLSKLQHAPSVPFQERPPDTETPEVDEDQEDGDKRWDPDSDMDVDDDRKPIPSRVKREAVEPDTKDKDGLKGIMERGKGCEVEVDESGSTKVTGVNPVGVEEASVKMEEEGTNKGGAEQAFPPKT
Put plainly: pull-down; pairs of GST-, MBP- or His-tagged proteins incubated with GST or MBP beads 2 h at 4 °C, five washes with lysis buffer, elution, western blot with anti-GST, anti-MBP or anti-His; both purified. (In western blotting, separated proteins are transferred to a membrane and probed.)

Consider “His-SNL5-3 (1–191 aa) (from UniProt Q9XIE1 1-191) (domain or fragment)”, for which the binding entry is given as “binds”.
